The list shows a part of the results.
The sequences below were run against OsWRKY34 (Oryza sativa, UniProt Q0JBA9 1-250) (assay: protein-binding microarray (RPBM); PBS, 2% BSA, 51.3 ng/ul salmon testes DNA, 50 uM zinc acetate, 200 nM TF, 25 C, 1 h; high values mean tight binding). Conditions: protein: recombinant; tags: N-terminal polyhistidine and DsRed monomer fusion (pET32a); label: CyDye5-dUTP incorporated in the synthesized complementary strand; 3' TTTTT single-stranded linker to array surface; dsDNA, one strand shown.
Outline: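 Binding signal is reported as fluorescence intensity per feature (arbitrary units) from an Axon 4000B scanner. Incubation used 200 nM of each Ni–NTA-purified, N-terminally polyhistidine- and DsRed-fused transcription factor from E. coli BL21-CodonPlus on a double-stranded custom Agilent array for 1 h at 25 °C, with 50 µM zinc acetate in the buffer, followed by washing.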

Protein sequences, listed by entry. Tags and fused reporters are not part of them.
UniProt Q0JBA9, entry or part of it: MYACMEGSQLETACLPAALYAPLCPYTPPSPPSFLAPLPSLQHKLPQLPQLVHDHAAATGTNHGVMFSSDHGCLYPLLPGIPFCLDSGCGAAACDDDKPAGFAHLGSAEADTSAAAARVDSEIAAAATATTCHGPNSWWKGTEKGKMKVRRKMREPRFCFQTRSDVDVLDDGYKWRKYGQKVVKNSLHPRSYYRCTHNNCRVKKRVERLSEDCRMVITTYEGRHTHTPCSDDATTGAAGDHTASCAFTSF

| Sequence | binding signal |
| --- | --- |
| TTTTCTTACGGTACTGTCATCTCATTGTTTCCTCTAAAAACGGAGTCACCTAGTGCAG | 11800 fluorescence intensity (a.u.) |
| GCCATTCCACATCAGTCCGTGCCGCTCTCTGCCCATTCTCCGGAGTCACCTAGTGCAG | 18900 fluorescence intensity (a.u.) |
| TCTTACCCCAAGTTTCCCAACTCATCTCTCTCGTTTTCCTCGGAGTCACCTAGTGCAG | 10600 fluorescence intensity (a.u.) |
| CTTGTTGGGTCTTTTTTTTTTGGGCAAGATGGTGAATTGGCGGAGTCACCTAGTGCAG | 8480 fluorescence intensity (a.u.) |
| GCGCGCCGCCTGACTTCCTCTCCTTCTCCGGTGCCTCACCCGGAGTCACCTAGTGCAG | 8600 fluorescence intensity (a.u.) |
| CTGTCAACGAGTGCCTATCTTCAATCAGCTATACCTATGTCGGAGTCACCTAGTGCAG | 8800 fluorescence intensity (a.u.) |
| ATTCGTAATTCACTACTTATTTCGCATTTCAGTACAATATCGGAGTCACCTAGTGCAG | 10600 fluorescence intensity (a.u.) |
| TTGTTTTGTATTAGTAGTTAATTACCGCGCTCTCTAATACCGGAGTCACCTAGTGCAG | 11400 fluorescence intensity (a.u.) |
| CTCTTTTAGGTGATTGTTCTTGTTCTTCTTCTTCGACATGCGGAGTCACCTAGTGCAG | 9620 fluorescence intensity (a.u.) |
| CCCACCCCATCCAACCTGTCTCCGCCAAATACTACTCCTCCGGAGTCACCTAGTGCAG | 9150 fluorescence intensity (a.u.) |
| TTTTGACGCATTTTATTGCTGAGTTGCTAGTAGGCATGATCGGAGTCACCTAGTGCAG | 8030 fluorescence intensity (a.u.) |
| ACATCTCGCCGCCGGCGTCGTTTCCTGTTTCCCACAGGTTCGGAGTCACCTAGTGCAG | 8980 fluorescence intensity (a.u.) |
| CTACATAGATTCTAACCTCTACTTTCAATTTTCTTATTTTCGGAGTCACCTAGTGCAG | 8200 fluorescence intensity (a.u.) |
| GTATTATGGGCCGTGGGTACCCGCGCGGGGCCGGGGACGGCGGAGTCACCTAGTGCAG | 9710 fluorescence intensity (a.u.) |
| TTGCTCCATCCACGTTTAAATATTAAAATATTTTAATATTCGGAGTCACCTAGTGCAG | 9900 fluorescence intensity (a.u.) |
| CCTTCTATTTTTCCGTCACATCAAATGTTTGGACACATGTCGGAGTCACCTAGTGCAG | 9670 fluorescence intensity (a.u.) |
| GGCTCGGTTTGATATGTTTCGGCCTTGTTCGGTTGGTCCGCGGAGTCACCTAGTGCAG | 9960 fluorescence intensity (a.u.) |
| TCAGTCCATCCAACGCGTCTTCAGTCCTCACCCGCAGCAACGGAGTCACCTAGTGCAG | 8870 fluorescence intensity (a.u.) |
| TCTTCATCTGCCTCACTTTCTCTCTCTACTTCACTTCTTCCGGAGTCACCTAGTGCAG | 8980 fluorescence intensity (a.u.) |
| CTTCTCCCTCGTTTTCCGCGCGCATGCTTTTCAAACTAATCGGAGTCACCTAGTGCAG | 9500 fluorescence intensity (a.u.) |
| GTACGTTTGCATTGCAGGCATTTCTTCTCCAAGGCGTCCGCGGAGTCACCTAGTGCAG | 8800 fluorescence intensity (a.u.) |

Two records picked at random from the list so far, as already listed:

| Sequence | binding signal |
| --- | --- |
| GGCTCGGTTTGATATGTTTCGGCCTTGTTCGGTTGGTCCGCGGAGTCACCTAGTGCAG | 9960 fluorescence intensity (a.u.) |
| ATTCGTAATTCACTACTTATTTCGCATTTCAGTACAATATCGGAGTCACCTAGTGCAG | 10600 fluorescence intensity (a.u.) |

Next entries follow.

| Sequence | binding signal |
| --- | --- |
| ATTGTGCTTGTATGGTTCTGATTATATGATGCGTATTTTCCGGAGTCACCTAGTGCAG | 10800 fluorescence intensity (a.u.) |
| TGTTTAAACAACTCCTTACCTTTGCAATCTTGCATCCCAGCGGAGTCACCTAGTGCAG | 8040 fluorescence intensity (a.u.) |
| TGACCATTTCCGGTGGGAGGGCGGAGGTTTTGTCCCGGCTCGGAGTCACCTAGTGCAG | 8180 fluorescence intensity (a.u.) |
| AACACTCACATCAAGTCATCAACCGACCTTGTCAAGTCAACGGAGTCACCTAGTGCAG | 10600 fluorescence intensity (a.u.) |
| AACCTGTAACATCAGCGGTGCATTTTGGCAATCTTCTTTCCGGAGTCACCTAGTGCAG | 9070 fluorescence intensity (a.u.) |
| AGGAACTATGCCTGGCAGCATCCATGTCTCAGGTTTTTTTCGGAGTCACCTAGTGCAG | 8880 fluorescence intensity (a.u.) |
| CACCGCGCCGTGCGCCAGCACCCGCACTTGCGCCACCCACCGGAGTCACCTAGTGCAG | 8920 fluorescence intensity (a.u.) |
| ACTTTTATTTATCTCTCTCTTCCACATAAGCATTTAGCTTCGGAGTCACCTAGTGCAG | 8130 fluorescence intensity (a.u.) |
| TCCATCATCCAATACCGTTAACTTTTATTTTTCCGCTTTTCGGAGTCACCTAGTGCAG | 12100 fluorescence intensity (a.u.) |
| ATCTTTCTAATTTTGGGCCGTTCATTTGTTTAAGATTCGTCGGAGTCACCTAGTGCAG | 10400 fluorescence intensity (a.u.) |
| ATTCACCTCACTATATCATTGATCATCCGAGTCCTAACTGCGGAGTCACCTAGTGCAG | 9680 fluorescence intensity (a.u.) |
| GCAAAATCGAGATATGCCATCCTGACCCACATGCCATTGACGGAGTCACCTAGTGCAG | 8080 fluorescence intensity (a.u.) |
| TGCACTTATTTTACCATTAGTTTTGAAACTATATATTTCTCGGAGTCACCTAGTGCAG | 8740 fluorescence intensity (a.u.) |
| CATCCTTTTCCCGTGTCTCGTACTACTCTCGTGTGGCAAACGGAGTCACCTAGTGCAG | 8320 fluorescence intensity (a.u.) |
| ACATTCTTGTTGCAAGTAATTTACAGTCATTGACTGTTTACGGAGTCACCTAGTGCAG | 10900 fluorescence intensity (a.u.) |
| ACTCTTTACTCTTTCTTTTCTTCTTTCTTTTTTGGCGGGGCGGAGTCACCTAGTGCAG | 21200 fluorescence intensity (a.u.) |
| ATTAGTCCTGTTGTTCCATCTGCCTGCTTGACTACAAGCACGGAGTCACCTAGTGCAG | 8400 fluorescence intensity (a.u.) |
| CTACATGGGTGTTGACTCATTTTATTTATCTTTTTCTCCACGGAGTCACCTAGTGCAG | 10300 fluorescence intensity (a.u.) |
| GCTGTTTTTTTTTCTTTTGTTTCTCCTCATTTGCTTTCTTCGGAGTCACCTAGTGCAG | 13500 fluorescence intensity (a.u.) |
| GCTATTTCCTGTTCACGGTTCCCCACATCTTTTGCTAGCACGGAGTCACCTAGTGCAG | 10900 fluorescence intensity (a.u.) |
| GGGTATGTTTGGCTAATGGGTTAGGGAGATGATTTCCCATCGGAGTCACCTAGTGCAG | 9750 fluorescence intensity (a.u.) |

| Sequence | binding signal |
| --- | --- |
| CGTCCGCCGCCGCCGCCGCCACCACCTGCACCGATCCCCACGGAGTCACCTAGTGCAG | 13100 fluorescence intensity (a.u.) |
| AACACCATGTCAACACTGCCACATTAGCGTCACGTCAGCACGGAGTCACCTAGTGCAG | 9950 fluorescence intensity (a.u.) |
| CCTTTTCGCTTCTCTCGAGAAATCAAACCGTTCCTTTTTCCGGAGTCACCTAGTGCAG | 10200 fluorescence intensity (a.u.) |
| CGCCGTGTCCTTGCTCCTCCTAACTCAATAACATTACACGCGGAGTCACCTAGTGCAG | 8790 fluorescence intensity (a.u.) |
| GATTCGGTGCTAGCCTTCTCCCGGATTGTGTGTTGAAGCTCGGAGTCACCTAGTGCAG | 8080 fluorescence intensity (a.u.) |
| GTGCTTTATCAGTGTGTGATGGTTCTTGCTGCCATGGTTACGGAGTCACCTAGTGCAG | 8740 fluorescence intensity (a.u.) |
| CTCCGCCGTCACCTCCACCACGCTGCCATCGCTTCGATCTCGGAGTCACCTAGTGCAG | 14900 fluorescence intensity (a.u.) |
| AGCATAGGTAGTGTTTTAATAGAGGTGTTTAGTTTGCTATCGGAGTCACCTAGTGCAG | 8940 fluorescence intensity (a.u.) |
| ACACCCACACTGTGCCGCAACGCCTCACGAACTCCGCGCGCGGAGTCACCTAGTGCAG | 8560 fluorescence intensity (a.u.) |
| TCATCGGGGTTGGCGTTTAGGTATCTTTTTAGCGCCATGGCGGAGTCACCTAGTGCAG | 11500 fluorescence intensity (a.u.) |
| TGCACCCCAGAGACAACCTAGCTACGTACCCTGCATCTGACGGAGTCACCTAGTGCAG | 8140 fluorescence intensity (a.u.) |
| TGAGCCATCAGACATTTATCACTTGGTTTCGTTTTACCTACGGAGTCACCTAGTGCAG | 9480 fluorescence intensity (a.u.) |
| AGCCCTGGTGTCTCTCTCAGCTTGTCCAGATACTTCCCCGCGGAGTCACCTAGTGCAG | 8920 fluorescence intensity (a.u.) |
| TTGGGTTGGGAATGGCGTTAGTAGCAGCTGGTGCAGCAGACGGAGTCACCTAGTGCAG | 8710 fluorescence intensity (a.u.) |
| ATGTACTCCGTTTCAATTTCGATTTGCTTGTCGTTCTAACCGGAGTCACCTAGTGCAG | 9070 fluorescence intensity (a.u.) |
| ATGCTATACTCTCTTTTCCCATAAAAAATAGTATTTTTTACGGAGTCACCTAGTGCAG | 8220 fluorescence intensity (a.u.) |
| AACCCCGACTCACGCGGAGCCACCGCCCTCGACTGTCGCCCGGAGTCACCTAGTGCAG | 8710 fluorescence intensity (a.u.) |
| TGAAATGGATGGACGGTGATCACGTGTTGACCAGACCTGACGGAGTCACCTAGTGCAG | 9960 fluorescence intensity (a.u.) |
| TTGCTTCTCCGCCAGATCCGGTTGTCGTCGCCATCGCCTCCGGAGTCACCTAGTGCAG | 9590 fluorescence intensity (a.u.) |
| TTCTTCTTCTTCTTCAATTCTTGGACCATTCTTCCCTTCTCGGAGTCACCTAGTGCAG | 11500 fluorescence intensity (a.u.) |
| TTCACCACCACCGCCACGGCCTCTGCCTCTCGCTCTCTCTCGGAGTCACCTAGTGCAG | 10200 fluorescence intensity (a.u.) |

Looked up above:
TTCTTCTTCTTCTTCAATTCTTGGACCATTCTTCCCTTCTCGGAGTCACCTAGTGCAG – binding signal: 11500 fluorescence intensity (a.u.)
ACATTCTTGTTGCAAGTAATTTACAGTCATTGACTGTTTACGGAGTCACCTAGTGCAG – binding signal: 10900 fluorescence intensity (a.u.)
CTCCGCCGTCACCTCCACCACGCTGCCATCGCTTCGATCTCGGAGTCACCTAGTGCAG – binding signal: 14900 fluorescence intensity (a.u.)
TTGCTTCTCCGCCAGATCCGGTTGTCGTCGCCATCGCCTCCGGAGTCACCTAGTGCAG – binding signal: 9590 fluorescence intensity (a.u.)

The list goes on:

| Sequence | binding signal |
| --- | --- |
| AAGGGTCGGGTTTGGGCAAAATCTCGGCTGTGTTTCGTTGCGGAGTCACCTAGTGCAG | 9220 fluorescence intensity (a.u.) |
| CCTCAACCGTGACTCAGTTATTCAGTTCGACACCCAGCCGCGGAGTCACCTAGTGCAG | 8070 fluorescence intensity (a.u.) |
| GATTTTTATGATGTGATGGATTCTGGCCGGTTAGTTTTGTCGGAGTCACCTAGTGCAG | 12300 fluorescence intensity (a.u.) |
| AATACCGTATCCCTCCCGCGGCTCCGACTCCAAACCTAACCGGAGTCACCTAGTGCAG | 8170 fluorescence intensity (a.u.) |
| GAGAAGAGGAGAGAGAGTGAGAGTGGGCGACAATTTTATCCGGAGTCACCTAGTGCAG | 64200 fluorescence intensity (a.u.) |
| ATGTTTAGATCCCGGCAAAAATTTTCACTGTCTCATATCACGGAGTCACCTAGTGCAG | 9220 fluorescence intensity (a.u.) |
| AGACCGACTCCGTTTCCTCTTCGCGTCTCCTTCCTCACCGCGGAGTCACCTAGTGCAG | 8900 fluorescence intensity (a.u.) |
| GAGTTAAAATACATTTCCTGCCGCTGGCCCTTGTTGACACCGGAGTCACCTAGTGCAG | 8140 fluorescence intensity (a.u.) |
| GCTTTCCTTTTCTTCTTCTTCTTTTCAGATCCAAGGTTAACGGAGTCACCTAGTGCAG | 10900 fluorescence intensity (a.u.) |
| CAAATCGCTGCCGCCGCCGCCGCCCGCTCGCTAGGGTTTCCGGAGTCACCTAGTGCAG | 8740 fluorescence intensity (a.u.) |
| GCGCTAAATGTCGTGTCACCATGGATAAGTCTGAGTCGACCGGAGTCACCTAGTGCAG | 8770 fluorescence intensity (a.u.) |
| GCCAGCAACCAAACACACCCTAATGCACCTTTCTCTCTATCGGAGTCACCTAGTGCAG | 9470 fluorescence intensity (a.u.) |
| TCAGCCATGAATCCTGCGCACGTTTTTAGAATGAAGATTTCGGAGTCACCTAGTGCAG | 10300 fluorescence intensity (a.u.) |
| GCCACCGCCACCGCCACGCTCGCGCTCCAGCTTGACCGCGCGGAGTCACCTAGTGCAG | 9460 fluorescence intensity (a.u.) |
| CGCGCCATTTCGGTTCCTGGGCCAACCGTGCCCCGTCCACCGGAGTCACCTAGTGCAG | 9450 fluorescence intensity (a.u.) |
| AAACTTTCCTACACACAAACTTGCGACTTTTTCATCACATCGGAGTCACCTAGTGCAG | 8180 fluorescence intensity (a.u.) |
| GCTCGCCCGTCTTTCGCTCTGCCCGCAGCCCGCCGCCGCTCGGAGTCACCTAGTGCAG | 14000 fluorescence intensity (a.u.) |
| AATCCATGTCTCGTCTCTATAATCTGTGTGTATATAGCTCCGGAGTCACCTAGTGCAG | 10900 fluorescence intensity (a.u.) |
| TCTATATATACGTGCTACCGTTTACTATAAATAACCACATCGGAGTCACCTAGTGCAG | 9340 fluorescence intensity (a.u.) |
| GTGGGAGGGAGGGCGGCGAGCTGCGCGGCGAACCTCGAGCCGGAGTCACCTAGTGCAG | 8120 fluorescence intensity (a.u.) |
| ACTCATCTCATCTCTGATCTCTCATCTCATCTCACCAACCCGGAGTCACCTAGTGCAG | 11100 fluorescence intensity (a.u.) |
